No constants are given. Whether binding was seen depends on the method and setting. In cells and extracts the contact can be indirect. For some of these results: Tags and fused reporters may be left off the sequences shown.
B1: GFP-SseK2 (protein, UniProt Q8ZNP4 1-348)
chain: MARFNAAFTRIKIMFSRIRGLISCQSNTQTIAPTLSPPSSGHVSFAGIDYPLLPLNHQTPLVFQWFERNPDRFGQNEIPIINTQKNPYLNNIINAAIIEKERIIGIFVDGDFSKGQRKALGKLEQNYRNIKVIYNSDLNYSMYDKKLTTIYLENITKLEAQSASERDEVLLNGVKKSLEDVLKNNPEETLISSHNKDKGHLWFDFYRNLFLLKGSDAFLEAGKPGCHHLQPGGGCIYLDADMLLTDKLGTLYLPDGIAIHVSRKDNHVSLENGIIAVNRSEHPALIKGLEIMHSKPYGDPYNDWLSKGLRHYFDGSHIQDYDAFCDFIEFKHENIIMNTSSLTASSWR

Sequences of proteins named here, by UniProt entry; tags and fusion partners are left off.
UniProt Q9L9J3: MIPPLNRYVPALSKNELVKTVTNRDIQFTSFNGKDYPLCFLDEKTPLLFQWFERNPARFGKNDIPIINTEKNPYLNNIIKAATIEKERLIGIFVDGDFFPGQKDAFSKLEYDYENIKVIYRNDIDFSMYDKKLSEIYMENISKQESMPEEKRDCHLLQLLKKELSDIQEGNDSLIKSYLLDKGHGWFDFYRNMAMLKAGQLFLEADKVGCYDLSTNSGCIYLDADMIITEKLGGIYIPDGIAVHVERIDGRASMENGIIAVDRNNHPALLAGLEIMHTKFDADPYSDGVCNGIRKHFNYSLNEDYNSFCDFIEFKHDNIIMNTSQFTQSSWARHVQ

Assays:
[1] = target: GFP-SseK1 (Salmonella (S. Typhimurium)) (UniProt Q9L9J3); test: co-IP; A431 cells transfected with GFP-SseK1, GFP-SseK2 or GFP-SseK3; GFP-nanotrap beads, 1 hr at 4°C; endogenous TRIM32 detected by anti-TRIM32 immunoblot
[2] = target: T1, GFP-SseK2 (Salmonella (S. Typhimurium)) (UniProt Q8ZNP4); test: as above
T1 sequence: B1 chain

[3] = target: T2, Myc-TRIM32 (Mus musculus TRIM32 with an N-terminal Myc epitope tag), non-ubiquitinated form (Mus musculus) (UniProt Q8CH72); test: co-IP; A431 cells co-transfected with Myc-TRIM32 and a GFP-SseK; mouse monoclonal anti-Myc antibody with Protein G agarose beads, overnight; anti-GFP immunoblot
T2 sequence: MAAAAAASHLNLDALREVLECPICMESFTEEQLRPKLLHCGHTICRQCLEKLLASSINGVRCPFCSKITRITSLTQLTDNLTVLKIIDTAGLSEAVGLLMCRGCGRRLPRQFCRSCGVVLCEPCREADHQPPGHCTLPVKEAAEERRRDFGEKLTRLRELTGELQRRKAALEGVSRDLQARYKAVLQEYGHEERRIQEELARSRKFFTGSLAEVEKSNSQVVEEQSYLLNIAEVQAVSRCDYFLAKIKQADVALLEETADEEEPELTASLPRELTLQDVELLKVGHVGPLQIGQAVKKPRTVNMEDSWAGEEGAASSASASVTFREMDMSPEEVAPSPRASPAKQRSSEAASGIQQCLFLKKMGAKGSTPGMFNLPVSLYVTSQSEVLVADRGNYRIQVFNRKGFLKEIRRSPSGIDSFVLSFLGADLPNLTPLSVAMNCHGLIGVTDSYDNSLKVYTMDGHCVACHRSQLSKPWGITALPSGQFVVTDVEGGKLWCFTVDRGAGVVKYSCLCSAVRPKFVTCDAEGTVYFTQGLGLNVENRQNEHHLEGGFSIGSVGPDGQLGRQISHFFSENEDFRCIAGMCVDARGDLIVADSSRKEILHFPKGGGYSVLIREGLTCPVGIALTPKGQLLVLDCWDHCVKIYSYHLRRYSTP

| Molecule | binding [1] | binding [2] | binding [3] |
| --- | --- | --- | --- |
| TRIM32 (Tripartate Motif 32), endogenous, 72 kDa non-ubiquitinated form (from UniProt Q13049 1-653) | no binding | no binding | – |
| GFP-SseK1 (from UniProt Q9L9J3 1-336) | – | – | no binding |
| B1 | – | – | no binding |

— publication PMC4579058
